Drawing on patent US20210364527A1, this text covers binding for three molecules.

The target in assay [1] is T1, FITC-labeled KA peptide …-FITC.
T1 sequence (peptide, C-terminal FITC): KAKLDEESILKQK
The experiment in a line: fluorescence polarization titration.

Assay [2] addresses T2, FITC-labeled RA peptide …-FITC.
T2 sequence (peptide, C-terminal FITC): RAKLDEESILKQK
The assay is described as follows: single point fluorescence polarization, FITC-peptide with UBR-streptavidin complex.

Assay [3] shares this target. The experiment in a line: fluorescence polarization, single point. (Polarisation of emitted light reports the rotation of a fluorescent probe.)

No constants are given. Whether binding was seen depends on the method and setting. Some entries that bind do so weakly or less than the wild type. For some of these results: Where a sequence is shown, tags or fusion partners need not be part of it.

B1: Kluyveromyces marxianus UBR1 (PS621) (protein)
chain: MHSKFSHAGRICGAKFKVGEPIYRCKECSFDDTCVLCVNCFNPKDHTGHHVYTTICTEFNNGICDCGDKEAWNHTLFCKAEEG
Take B1: the binding result in assay [1] and in assay [2] was “binds” throughout.

B2: PS622 (protein)
chain: MHSRFNHAGRICASKFKVGEPIYRCKECSFDDTCVICVNCFNPKDHVGHHVYTSICSEFNNGICDCGDTEAWNHDMHCKADEN
As for B2, the binding entry in assay [3] was “binds”.

B3: PS629 (protein)
chain: MCPNYKHHGRPCARQFKQGEPIYRCYECGFDETCVMCMHCFNREQHRDHEVSISIASSSNDGICDCGDPQAWNIELHCQSELD
For B3, in assay [3], the binding entry is “binds”.
